From PubChem BioAssay AID588497 (NMMLSC, 2011)
Among all 360,000 compounds or so, about 780 (0.22%) were called active. The shares of active, inactive and inconclusive entries below differ from those in the screen. No stated cut-off is given here; in the data, active means inhibition above about 35% (passing the limit was not always enough); inconclusive means no clear call, values can overlap the other calls.

Tested on: Botulinum neurotoxin type F light chain protease (Clostridium botulinum)
Assay: BoNT/F light chain protease inhibitors, primary screen, biochemical, flow cytometry, MLPCN library (AID 588497); further: plate controls were buffer without enzyme for full effect and enzyme alone for no effect
Conditions: Multiplex microsphere protease cleavage assay, at 10 µM, hits give high values

**Q.** Which inhibition does the source give for `O=C1Cc2cc(NS(=O)(=O)c3ccc([N+](=O)[O-])cc3)cc3c2N1CCC3` here?
**A.** inconclusive: 14.3%

**Q.** For `COc1ccccc1OCC(=O)NCCS(=O)(=O)N1CCN(c2ccccc2)CC1`, which inhibition is on record?
**A.** inconclusive: 1.1%

**Q.** How did the inhibition turn out when `NC(=NCCc1c[nH]c2ccccc12)NC(=O)c1ccc(F)cc1` was run?
**A.** inconclusive: -27.2%

**Q.** For `COc1ccc(-n2nc(C)c3sc(C)nc3c2=O)cc1`, which inhibition is on record?
**A.** inconclusive: -0.4%

**Q.** How did the inhibition turn out when `CN(CCNC(=O)CCNC(=O)Cn1ccc2ccccc2c1=O)Cc1ccccc1` was run?
**A.** inconclusive: -39%

**Q.** For `COc1ccc(Cl)cc1Cn1c(C)c(C(=O)NCc2ccc(F)cc2)sc1=O`, which inhibition is on record?
**A.** inactive: -2.4%

**Q.** How did the inhibition turn out when `COc1ccccc1NC(=S)N(Cc1ccco1)Cc1cc2cc(C)ccc2[nH]c1=O` was run?
**A.** inactive: -7.7%

**Q.** For `S=C(Nc1ccccc1)N1CCc2ccccc21`, which inhibition is on record?
**A.** inconclusive: 4.1%

**Q.** Which inhibition does the source give for `COC(=O)c1cnn(-c2ccc(Cl)cc2)c1/C=N/NC(N)=S` here?
**A.** inconclusive: 28.5%

**Q.** `CN(CC(=O)Nc1ccc(F)cc1)C(=O)COC(=O)COc1ccc(C#N)cc1` was tested. Which inhibition did it give?
**A.** inactive: -4.4%

**Q.** `COC(=O)c1sc(NC(=O)CSc2nnnn2-c2cccc(OC)c2)nc1C` was tested. Which inhibition did it give?
**A.** inconclusive: 18.3%

**Q.** Which inhibition does the source give for `COc1ccc(NC(=S)NC2CCCC2)c(OC)c1` here?
**A.** inconclusive: -20.7%

**Q.** For `Cc1cc(C)n2nnnc2n1`, which inhibition is on record?
**A.** inconclusive: 20.6%

**Q.** For `Cc1cccc2c(=O)cc(C(F)(F)F)[nH]c12`, which inhibition is on record?
**A.** inconclusive: -218%

**Q.** With `CCCCc1ccc(NC(=S)N2CCN(c3ccccn3)CC2)cc1` as the compound, how does the inhibition read?
**A.** inconclusive: -38.8%

**Q.** How did the inhibition turn out when `COc1cc(/C=N\N=C2/SC(CC(=O)O)C(=O)N2c2ccc(O)cc2)ccc1O` (stereo not given) was run?
**A.** inactive: -3.4%

**Q.** With `FC(F)(F)Sc1ccc(NC(=S)NCc2ccccc2)cc1` as the compound, how does the inhibition read?
**A.** inconclusive: -7%

**Q.** `COc1ccc(-c2cc(C(=O)N3CCN(c4cccc(C)c4C)CC3)c3ccccc3n2)cc1OC` was tested. Which inhibition did it give?
**A.** inactive: 0.3%

**Q.** With `Cc1cc(C(=O)OCC(=O)Nc2ccccc2C#N)c(C)o1` as the compound, how does the inhibition read?
**A.** inconclusive: 19.5%

**Q.** `Cc1cccc(NC(=O)CSc2nnc(CNC(=O)c3ccco3)o2)c1` was tested. Which inhibition did it give?
**A.** inactive: -1.2%

**Q.** With `CCCC(=O)C1=C(O)C(C(=O)OC)C(C)(C)CC1=Nc1cccc([N+](=O)[O-])c1` (stereo not given) as the compound, how does the inhibition read?
**A.** inconclusive: 11.2%

**Q.** `C#CCOC(=O)c1ccccc1C(=O)N(CC)CC` was tested. Which inhibition did it give?
**A.** inactive: -6.8%

**Q.** How did the inhibition turn out when `c1ccc2sc(NC3=NCN(C4CCCCCC4)CN3)nc2c1` was run?
**A.** inactive: -0.2%

**Q.** Which inhibition does the source give for `Nc1c(S(=O)(=O)c2ccccc2)c2nc3ccccc3nc2n1/N=C/c1cccc(O)c1` here?
**A.** inconclusive: -23.6%

**Q.** `COc1ccc(NS(=O)(=O)c2cccc3cccnc23)cc1OC` was tested. Which inhibition did it give?
**A.** inconclusive: -22.2%
